According to PMC10501186:
Results are given in words; binding and its absence hold for the method and conditions named. In cells and extracts the contact can be indirect. Some results given as binding are weak or reduced against the parent protein; the word gives no strength. Values belong to the molecule of their own block, whether it stands above or below them.

Chains of the proteins cited; added tags and fusions are not shown.
UniProt Q5NCY0: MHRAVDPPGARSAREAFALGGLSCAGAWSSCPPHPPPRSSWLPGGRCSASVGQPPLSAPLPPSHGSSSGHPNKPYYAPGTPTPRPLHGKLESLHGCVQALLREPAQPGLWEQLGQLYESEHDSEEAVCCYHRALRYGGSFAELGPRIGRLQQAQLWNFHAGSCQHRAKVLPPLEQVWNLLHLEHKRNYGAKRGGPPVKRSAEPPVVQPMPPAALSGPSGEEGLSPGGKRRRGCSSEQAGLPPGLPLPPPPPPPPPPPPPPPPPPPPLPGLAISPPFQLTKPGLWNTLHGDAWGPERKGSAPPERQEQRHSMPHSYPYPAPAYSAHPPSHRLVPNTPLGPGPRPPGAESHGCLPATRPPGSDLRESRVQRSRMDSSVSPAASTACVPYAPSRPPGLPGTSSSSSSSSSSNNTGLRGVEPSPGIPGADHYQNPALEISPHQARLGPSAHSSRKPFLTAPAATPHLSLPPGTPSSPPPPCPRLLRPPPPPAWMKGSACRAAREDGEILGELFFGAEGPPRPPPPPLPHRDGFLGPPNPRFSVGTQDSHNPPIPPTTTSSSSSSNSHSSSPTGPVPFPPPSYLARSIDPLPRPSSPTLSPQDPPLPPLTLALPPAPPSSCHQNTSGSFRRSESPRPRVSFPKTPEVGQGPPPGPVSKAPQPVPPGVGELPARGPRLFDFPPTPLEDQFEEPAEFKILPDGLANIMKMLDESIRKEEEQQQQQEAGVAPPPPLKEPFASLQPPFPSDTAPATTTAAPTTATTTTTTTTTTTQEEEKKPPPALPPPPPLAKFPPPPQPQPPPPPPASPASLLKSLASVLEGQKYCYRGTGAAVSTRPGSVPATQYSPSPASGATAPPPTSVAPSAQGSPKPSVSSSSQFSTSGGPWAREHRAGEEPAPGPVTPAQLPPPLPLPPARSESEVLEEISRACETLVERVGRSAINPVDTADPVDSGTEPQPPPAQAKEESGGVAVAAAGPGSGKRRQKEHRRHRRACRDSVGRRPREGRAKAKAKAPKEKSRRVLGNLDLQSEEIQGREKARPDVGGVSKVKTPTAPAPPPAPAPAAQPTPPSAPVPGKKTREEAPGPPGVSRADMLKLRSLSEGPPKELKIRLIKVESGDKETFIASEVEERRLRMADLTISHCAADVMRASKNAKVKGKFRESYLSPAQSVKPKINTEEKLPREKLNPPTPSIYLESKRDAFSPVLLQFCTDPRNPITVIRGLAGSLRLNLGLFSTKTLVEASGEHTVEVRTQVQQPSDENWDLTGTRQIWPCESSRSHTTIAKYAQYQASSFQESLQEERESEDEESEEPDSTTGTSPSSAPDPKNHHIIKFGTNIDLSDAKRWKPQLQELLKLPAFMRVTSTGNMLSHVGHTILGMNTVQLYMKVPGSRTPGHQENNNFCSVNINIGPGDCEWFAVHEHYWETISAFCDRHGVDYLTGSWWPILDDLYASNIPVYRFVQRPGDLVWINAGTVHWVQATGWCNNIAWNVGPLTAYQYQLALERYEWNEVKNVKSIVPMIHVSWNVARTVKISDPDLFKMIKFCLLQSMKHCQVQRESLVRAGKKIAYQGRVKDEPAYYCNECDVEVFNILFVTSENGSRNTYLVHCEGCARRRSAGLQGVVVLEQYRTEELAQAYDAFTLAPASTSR
UniProt Q8C3P7: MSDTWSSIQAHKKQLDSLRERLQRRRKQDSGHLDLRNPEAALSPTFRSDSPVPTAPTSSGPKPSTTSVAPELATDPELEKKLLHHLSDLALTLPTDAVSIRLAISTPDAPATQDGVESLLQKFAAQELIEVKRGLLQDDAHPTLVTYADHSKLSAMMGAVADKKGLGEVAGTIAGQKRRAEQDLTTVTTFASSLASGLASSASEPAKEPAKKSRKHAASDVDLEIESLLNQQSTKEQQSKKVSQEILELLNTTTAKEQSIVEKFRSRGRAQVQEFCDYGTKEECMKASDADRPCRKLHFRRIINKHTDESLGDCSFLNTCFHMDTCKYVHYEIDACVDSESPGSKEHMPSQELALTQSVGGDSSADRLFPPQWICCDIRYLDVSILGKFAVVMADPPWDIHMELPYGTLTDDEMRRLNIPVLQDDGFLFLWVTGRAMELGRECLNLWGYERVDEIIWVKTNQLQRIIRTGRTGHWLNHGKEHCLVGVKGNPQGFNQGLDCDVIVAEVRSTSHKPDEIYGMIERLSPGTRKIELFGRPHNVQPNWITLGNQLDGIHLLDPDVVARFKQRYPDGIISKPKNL

Target: lysine demethylase 6B (mouse (endogenous in mESCs)) (UniProt Q5NCY0)
Test: co-IP; immunoprecipitation of KDM6B from mESC lysate (50 mmol/L Tris-HCl pH 7.5, 150 mmol/L NaCl, 1% NP40), with and without RNase A/T1 treatment; antibody-conjugated Protein G Dynabeads, 4°C overnight; Western blot

binding: no binding
Molecule: METTL3 (from UniProt Q8C3P7 1-580)

binding: binds
B1: METTL14 (protein, UniProt Q3UIK4 1-456)
chain: MDSRLQEIRERQKLRRQLLAQQLGAESADSIGAVLNSKDEQREIAETRETCRASYDTSAPNSKRKCLDEGETDEDKVEEYKDELEMQQEEENLPYEEEIYKDSSTFLKGTQSLNPHNDYCQHFVDTGHRPQNFIRDVGLADRFEEYPKLRELIRLKDELIAKSNTPPMYLQADIEAFDIRELTPKFDVILLEPPLEEYYRETGITANEKCWTWDDIMKLEIDEIAAPRSFIFLWCGSGEGLDLGRVCLRKWGYRRCEDICWIKTNKNNPGKTKTLDPKAVFQRTKEHCLMGIKGTVKRSTDGDFIHANVDIDLIITEEPEIGNIEKPVEIFHIIEHFCLGRRRLHLFGRDSTIRPGWLTVGPTLTNSNYNAETYASYFSAPNSYLTGCTEEIERLRPKSPPPKSKSDRGGGAPRGGGRGGTSAGRGRERNRSNFRGERGGFRGGRGGTHRGGFTPR
